ChEMBL document CHEMBL4513149, “CO-ADD screening of MMV (CH) - MMV compounds” (2021)
Some of the results follow. Entries with a potency or affinity are not part of this list.

These molecules were tested on Pseudomonas aeruginosa. Settings: Concentration 20 uM; ASSAY_TEST Inhibition of Bacterial Growth; detection method Absorption (OD600); MEDIA CAMHB; plate type 384well; NBS; CORNING #3640; time 18 hr.
O=S(=O)(c1ccc(Cl)cc1)N1CCN(C(=S)NCc2ccco2)CC1 was tested, and the Inhibition was 6.62%. In the case of Cc1ccc2[nH]c3c(NCCN(C)C)ncnc3c2c1, the Inhibition was 12.5%. For CC1=NN(c2nc3ccccc3s2)C(=O)C1Cc1cccc2ccccc12 (centres undefined), the Inhibition was 9.22%. Work on CN1CCN(c2nccc3[nH]c(-c4cccc(F)c4)cc23)CC1 yielded an Inhibition of 11.09%. With O=C(NCCN1CCCC1)c1cc(NCCCCN2CCC(F)(F)CC2)nc2ccc(Cl)cc12 the Inhibition was 19.88%. With COc1cncc(-c2cncc(N3CCN(c4ccncc4)CC3)n2)c1 the Inhibition was 17.14%. For O=C(NCc1ccco1)N1CCN(Cc2ccc(Cl)s2)CC1, the Inhibition was 3.22%. Work on COc1cccc(OC)c1C(=O)Nc1ccc(Cl)c(-c2nc3ccccc3s2)c1 yielded an Inhibition of 1.66%. Work on CC1CC1C(=O)NC1CCN(CC2(c3ccccc3)CCCCC2)CC1 (centres undefined) yielded an Inhibition of 11.29%. In the case of COc1cc(-c2cc(-c3ccc(S(C)(=O)=O)cc3)cnc2N)ccc1O, the Inhibition was 6.78%. CNC1C(OC2C(OC3C(O)C(O)C(NC(=N)N)C(O)C3NC(=N)N)OC(C)C2(O)C=O)OC(CO)C(O)C1O.CNC1C(OC2C(OC3C(O)C(O)C(NC(=N)N)C(O)C3NC(=N)N)OC(C)C2(O)C=O)OC(CO)C(O)C1O.O=S(=O)(O)O.O=S(=O)(O)O.O=S(=O)(O)O (centres undefined) gave an Inhibition of 2.72%. Work on CCN(CC)S(=O)(=O)c1ccc(Cl)c(C(=O)Nc2ccc3nc(C)sc3c2)c1 yielded an Inhibition of 0.72%. O=C1[C@@H](Oc2ccccc2)[C@@H](c2ccc(Cl)cc2)N1CCn1cnc2c(NCc3ccccc3)ncnc21 gave an Inhibition of -2.26%. N#Cc1nc(-c2ccccc2F)oc1NCCc1ccccc1 gave an Inhibition of 8.81%. Molecule Cc1ccc2nc(C)c(-c3ccn(Cc4ccccc4)n3)n2c1 has an Inhibition of 14.57%. Work on CN(C)c1cc(NC(=O)Nc2ccccc2)c2ccccc2n1 yielded an Inhibition of 15.22%. Cc1cc(NC(=O)c2ccc(S(=O)(=O)N(Cc3ccccc3)C(C)C)cc2)no1 showed an Inhibition of 5.24%. Work on CC1=Nc2ccc(Cl)cc2C(c2ccccc2)N1CCNC(=O)CN(C)C (centres undefined) yielded an Inhibition of 16.48%. O=C1N(Cc2cc3ccccc3s2)CC2CN(Cc3ccccc3)CCN12 (centres undefined) was tested, and the Inhibition was 3.81%. Molecule Cl.Cn1ccnc1CNCCS(=O)(=O)c1cccc(Nc2ccc(-c3cccc(F)c3)cn2)c1 has an Inhibition of 7.62%. Clc1ccc(Cl)c(CO[C@H]2CCCC[C@@H]2n2ccnc2)c1 was tested, and the Inhibition was 20.5%. With Cc1cc(C)n(-c2ccc(NC(=O)C3CCN(Cc4cnc(C)s4)CC3)cc2)n1 the Inhibition was 8.59%. For c1ccc(-c2[nH]c3ccccc3c2C(c2ccccn2)N2CCCC2)cc1 (centres undefined), the Inhibition was 11.79%. Molecule COc1ccc(-c2cncc3ccc(C(=O)NCCCn4ccnc4)nc23)cc1 has an Inhibition of 5.81%. Work on CS(=O)(=O)Cc1nc2ccccc2oc1=O yielded an Inhibition of 11.13%. In the case of OCCc1ccc(Nc2nccc(-c3nnc4ccccn34)n2)cc1, the Inhibition was 16.52%. COc1ccc(Cn2cnc3c(-c4ccco4)nc(Cl)nc32)cc1 was tested, and the Inhibition was 15.02%. In the case of Cl.O=C(Nc1ccc(N2CCNCC2)nc1)c1oc(-c2ccccc2)nc1C(F)(F)F, the Inhibition was -17.92%. CCC(Sc1nc2ccccc2o1)C(=O)Nc1nnc(C)s1 (centres undefined) was tested, and the Inhibition was -5.63%. N=C(N)c1ccc(-c2cc(-c3ccccc3)on2)cc1 gave an Inhibition of 13.36%. For O=C(NCc1cc(Cl)cc(Cl)c1)c1c(C(F)(F)F)nc2ccccn12, the Inhibition was 15.53%. Work on Cc1cccc(NC(=O)c2cc(S(=O)(=O)N(C)c3ccc(F)cc3)ccc2Cl)n1 yielded an Inhibition of 11.78%. C[C@H](c1ccc2c(c1)CCCC2)N(C)c1ncc2c(N)nc(N)nc2n1 gave an Inhibition of 13.44%. Work on Cc1ccccc1CN1CCC(O)(c2ccc(Cl)c(C(F)(F)F)c2)CC1 yielded an Inhibition of 9.76%. For Cl.NCCCC(N)(C(=O)O)C(F)F.O (centres undefined) [EFLORNITHINE HYDROCHLORIDE], the Inhibition was 7.21%. Cc1ccc(C(=O)Nc2ccc(S(=O)(=O)O)c3cc(S(=O)(=O)O)cc(S(=O)(=O)O)c23)cc1NC(=O)c1cccc(NC(=O)Nc2cccc(C(=O)Nc3cc(C(=O)Nc4ccc(S(=O)(=O)O)c5cc(S(=O)(=O)O)cc(S(=O)(=O)O)c45)ccc3C)c2)c1 [SURAMIN] gave an Inhibition of 15.45%. Cc1cc(C(=O)Nc2cnn(Cc3ccc(Cl)cc3Cl)c2)no1 showed an Inhibition of 7.05%. In the case of COc1ccccc1CNC(=O)c1cc(C2CC2)nc2c1cnn2C(C)C, the Inhibition was 5.5%. With CNC(=O)c1nn(C)c2c1C(C)(C)Cc1cnc(Nc3ccc(N4CCN(C)CC4)cc3)nc1-2 [MILCICLIB] the Inhibition was 5.97%. CCOc1ccccc1C(=O)Nc1cccc(-c2nc3ncccn3c2C)c1 was tested, and the Inhibition was 8.14%. Work on COc1cc(NC(=O)Cc2nn(C)c(=O)c3ccccc23)ccc1Cl yielded an Inhibition of 14.21%. Molecule CCCCc1ccc(NC(=O)Nc2ccc(O[C@H]3CCCC[C@@H]3N(C)c3ccccc3)c(F)c2)cc1 has an Inhibition of 10.53%. CC(C)C(NC(=O)Cc1cccc2ccccc12)C(=O)Nc1cccc(C#N)c1 (centres undefined) showed an Inhibition of 10.91%. Molecule CC(C)(C)OC(=O)N1CCC(Cn2nc(-c3cnc4ccccc4c3)c3c(N)ncnc32)CC1 has an Inhibition of 13.86%. With O=C(NC1CC1)c1ccc(N2CCC(Cc3ccccc3)CC2)nc1 the Inhibition was 20.01%. Molecule COc1ccc(C2(C(=O)Nc3ccc(Br)cc3)CCCC2)cc1 has an Inhibition of 22.51%. In the case of O=C(NCc1ccoc1)N1CCN(Cc2ccc3c(c2)OCO3)CC1, the Inhibition was 8.46%. Molecule Cc1nn2c(O)c3c(nc2c1-c1ccc(F)cc1)CCCC3 has an Inhibition of 14.05%. In the case of Clc1ccc(CCNc2cc(-c3ccccc3)nc3ncnn23)cc1, the Inhibition was 7.99%. Molecule N#Cc1nc(-c2ccccc2)oc1S(=O)(=O)c1ccc(Cl)cc1 has an Inhibition of 0.82%. Clc1ccc(-n2cc(COc3ccnc4ccccc34)nn2)cc1 gave an Inhibition of 16.23%. Cl.c1ccc(Oc2ccc(-c3cc(N4CCNCC4)[nH]n3)cc2)cc1 gave an Inhibition of -3.7%. With CNC(=O)CNc1nc(-c2ccccn2)nc2scc(-c3ccccc3)c12 the Inhibition was 15.13%. COc1cccc(-c2cc3c(Nc4cccnc4)nccc3[nH]2)c1 showed an Inhibition of 7.93%. With O=C(NC1CCCCC1)N1CCN(Cc2ccc3c(c2)OCO3)CC1 the Inhibition was 11.6%. COc1ccc(OC(C)C(=O)Nc2ccc(Cl)cc2C)cc1 (centres undefined) gave an Inhibition of 9.27%. With CN1CCC(NCc2cccc(-c3ccc(S(=O)(=O)NCc4ccccc4)cc3)c2)CC1 the Inhibition was 6.61%. Cc1nn(C(=O)Nc2cccc(C(F)(F)F)c2)c(C)c1Sc1ncccn1 gave an Inhibition of 11.04%. For CN(C(=O)c1cc2c(-c3cncnc3)cccc2[nH]1)c1ccccc1, the Inhibition was 15.38%. Work on CN(C)CCNC(=O)N1CCCN(c2ncnc3cc(-c4ccccc4)sc23)CC1 yielded an Inhibition of 14.99%. Work on Nc1ncc(Br)cc1-c1nc2cc(Cl)cnc2[nH]1 yielded an Inhibition of 16.08%. Molecule Cc1cc(C)cc(COc2ccc3c(C)c(CCC(=O)O)c(=O)oc3c2C)c1 has an Inhibition of 6.69%. Work on FC(F)(F)c1ccc(N(c2cccnc2)C2CCN(c3ccc(C(F)(F)F)cn3)CC2)cc1 yielded an Inhibition of 11.66%. For Cl.Cl.Cl.NS(=O)(=O)c1cncc(-c2ccc3nccc(-c4cn[nH]c4)c3n2)c1, the Inhibition was 6.96%. O=C(NC1=NCCS1)c1sc2cc(F)ccc2c1Cl showed an Inhibition of 4.99%. Cn1ncc2c(N3CCOCC3)nc(NCCc3c[nH]c4ccccc34)nc21 [TDR79432] showed an Inhibition of 4.99%. With O=C(NCCN1CCCC1)c1cc(NCCN2CCOCC2)nc2ccc(Cl)cc12 the Inhibition was 15.64%. With O=C(Cn1ccnc1[N+](=O)[O-])NCc1ccccc1 [BENZNIDAZOLE] the Inhibition was 15.47%. In the case of O=C(C1CCN(c2nnc(-n3cccc3)s2)CC1)N1CCC(Cc2ccccc2)CC1, the Inhibition was 16.73%. O=C(Nc1c(O)cccc1-c1nc2c(C(=O)O)cccc2o1)c1cc(-c2ccccc2)on1 gave an Inhibition of -13.4%. With CCOc1ccc(OCC(=O)Nc2cc(C)cc(C)c2)cc1 the Inhibition was 9.52%. CC1(COc2ccc(N3CCC(Oc4ccc(OC(F)(F)F)cc4)CC3)cc2)Cn2cc([N+](=O)[O-])nc2O1 (centres undefined) gave an Inhibition of 14.8%. Molecule CC(C(=O)Nc1ccc2oc(-c3ccncc3)nc2c1)c1ccccc1 (centres undefined) has an Inhibition of 8.01%. O=C(Nc1cccc(Cl)c1)c1cnc(N2CCN(c3ccncc3)CC2)c(Cl)c1 was tested, and the Inhibition was 16.66%. With CCN(CC)CCCCCCNc1cc(OC)cc2c(C)ccnc12.Cc1ccc(S(=O)(=O)O)cc1 the Inhibition was 13.61%. With C[C@H](C(N)=O)N1CCCC[C@H]1c1ccc(OCc2cccc(F)c2)cc1 the Inhibition was 17.55%. With CN1CCC(c2cc(-c3ccncc3)c(-c3ccc(F)cc3)[nH]2)CC1 the Inhibition was 4.09%. CC(C)(C)CN1C(=O)C(c2ccccc2)(c2ccccc2)N=C1N was tested, and the Inhibition was 15.99%. Molecule CS(=O)(=O)c1cccc(-c2cnc3[nH]cc(-c4ccc(CCC(=O)O)cc4)c3c2)c1 has an Inhibition of 8.64%. Molecule Cc1cc(OCC(=O)NCc2ccccc2)c2cc(Br)ccc2n1 has an Inhibition of 10.66%. For CCCS(=O)(=O)N1CCC(CO)(Cc2ccccc2C(F)(F)F)CC1, the Inhibition was 0.83%. In the case of Nc1ncnc2c1c(Cc1cccc3ccccc13)nn2CC1CCNCC1, the Inhibition was -4.47%. C[C@H](C(N)=O)N1CCCC[C@@H]1c1ccc(OCc2cccc(F)c2)cc1 was tested, and the Inhibition was 6.37%. In the case of Cc1ncc(-c2ccnc(Nc3ccc(S(C)(=O)=O)cc3)n2)n1C(C)C [AZD-5438], the Inhibition was 10.65%. Cc1cc(Cl)ccc1NC(=O)CCc1ccc(S(=O)(=O)NCC(C)C)cc1 was tested, and the Inhibition was 8.89%. With Cl.NCC(c1cccs1)S(=O)(=O)c1ccccc1 (centres undefined) the Inhibition was -1.2%. With Cc1cc(C)n2nc(C(=O)Nc3cc(C(F)(F)F)ccc3N3CCOCC3)nc2n1 the Inhibition was 14.83%. Molecule O=C(NCCc1ccn(-c2ccccc2)n1)C1CCCCC1 has an Inhibition of 1.15%. Molecule CN1CCN(c2nccc3nc(-c4ccc(F)c(F)c4)[nH]c23)CC1 has an Inhibition of 20.48%.
